Results reported in patent US8247596B2 (Sumitomo Chemical Company, Limited, priority 2007, dated 2012).
Some entries share one result that the patent states for a list of compounds. For part of these data: At least one structure is not confirmed: it was looked up by name or label, or the drawing left a doubt.

Tests used:
brown rice planthopper [1] = test: Test Example 1: spray on rice plants against brown rice planthopper; assay type: in vivo, Nilaparvata lugens; conditions: 500 ppm, 20 ml/cup sprayed on rice plants; 30 first-instar larvae released; 6 days at 25° C.
brown rice planthopper [2] = test: Test Example 2: rice plants absorb test solution from bottom of cup, brown rice planthopper; assay type: in vivo, Nilaparvata lugens; conditions: 55.6 ppm, 45 ml absorbed from the bottom of the cup; 30 first-instar larvae released 6 days after treatment; left for 6 days at 25° C.
cotton aphids = test: Test Example 3: spray on cucumber against cotton aphids; assay type: in vivo, Aphis gossypii; conditions: 500 ppm, 20 ml/cup sprayed on cucumber with about 20 cotton aphids; six days after spraying

| SMILES | number of the parasitic pests (brown rice planthoppers on the rice plants) (brown rice planthopper [1]) | number of the parasitic pests (brown rice planthoppers on the rice plants) (brown rice planthopper [2]) | number of the parasitic pests (cotton aphids on cucumber) (cotton aphids) |
| --- | --- | --- | --- |
| N#CC(C1CCCCC1)S(=O)(=O)CCC(F)(F)F (stereo not drawn) [present compound (47), 2-cyclohexyl-2-(3,3,3-trifluoropropylsulfonyl)acetonitrile] | ≤ 3 | ≤ 3 | – |
| CON=C1CCC(C(C#N)S(=O)(=O)CCC(F)(F)F)CC1 (stereo not drawn) [present compound (33), 2-[4-(methoxyimino)cyclohexyl]-2-(3,3,3-trifluoropropylsulfonyl)acetonitrile] | ≤ 3 | ≤ 3 | ≤ 3 |
| CCC(C#N)(C1CCC(=NOC)CC1)S(=O)(=O)CCC(F)(F)F (stereo not drawn) [present compound (41), 2-[4-(methoxyimino)cyclohexyl]-2-(3,3,3-trifluoropropylsulfonyl)butyronitrile] | ≤ 3 | – | ≤ 3 |
| FC(F)(F)CCSCC1CCC2(CC1)OCCO2 [present compound (1)] | ≤ 3 | – | – |
| C#CC1(F)CCC(C(C#N)S(=O)(=O)CCC(F)(F)F)CC1 (stereo not drawn) [present compound (31), 2-(4-ethynyl-4-fluorocyclohexyl)-2-(3,3,3-trifluoropropylsulfonyl)acetonitrile] | ≤ 3 | ≤ 3 | ≤ 3 |
| C#CC1CCC(C[S+]([O-])CCC(F)(F)F)CC1 (stereo not drawn) [present compound (26t), 1-ethynyl-4-(3,3,3-trifluoropropylsulfinylmethyl)cyclohexane] | ≤ 3 | ≤ 3 | ≤ 3 |
| CON=C1CCC(C(C)(C#N)S(=O)(=O)CCC(F)(F)F)CC1 (stereo not drawn) [present compound (40), 2-[4-(methoxyimino)cyclohexyl]-2-(3,3,3-trifluoropropylsulfonyl)propionitrile] | ≤ 3 | – | ≤ 3 |
| C#CC1CCC(CSCCC(F)(F)F)CC1 (stereo not drawn) [present compound (25c)] | ≤ 3 | ≤ 3 | – |
| O=S(=O)(CCC(F)(F)F)CC1CCC2(CC1)OCCO2 [present compound (2), 8-(3,3,3-trifluoropropylsulfonylmethyl)-1,4-dioxaspiro[4.5]decane] | ≤ 3 | ≤ 3 | – |
| CC1CCC(C(C#N)S(=O)(=O)CCC(F)(F)F)CC1 (stereo not drawn) [present compound (49), 2-(4-methylcyclohexyl)-2-(3,3,3-trifluoropropylsulfonyl)acetonitrile] | ≤ 3 | ≤ 3 | ≤ 3 |
| COC(=O)C(C1CCC(F)(F)CC1)S(=O)(=O)CCC(F)(F)F (stereo not drawn) [present compound (11), methyl 2-(4,4-difluorocyclohexyl)-2-(3,3,3-trifluoropropylsulfonyl)acetate] | ≤ 3 | ≤ 3 | ≤ 3 |
| N#CC(C1CCC(=O)CC1)S(=O)(=O)CCC(F)(F)F (stereo not drawn) [present compound (28), 2-(4-oxocyclohexyl)-2-(3,3,3-trifluoropropylsulfonyl)acetonitrile] | – | – | ≤ 3 |
| O=S(=O)(CCC(F)(F)F)CC1CCC(F)(F)CC1 [present compound (4), 1,1-difluoro-4-(3,3,3,-trifluoropropylsulfonylmethyl)cyclohexanone] | ≤ 3 | ≤ 3 | ≤ 3 |
| CON=C1CCC(C(C#N)S(=O)(=O)CCC(F)(F)C(F)(F)F)CC1 (stereo not drawn) [present compound (55), 2-[4-(methoxyimino)cyclohexyl]-2-(3,3,4,4,4-pentafluorobutylsulfonyl)acetonitrile] | ≤ 3 | ≤ 3 | – |
| O=S(=O)(CCC(F)(F)F)CC1CC=C(F)CC1 (stereo not drawn) [present compound (5)] | ≤ 3 | ≤ 3 | ≤ 3 |
| N#CC(C1CCC(=NOCC(=O)O)CC1)S(=O)(=O)CCC(F)(F)F (stereo not drawn) [present compound (39), 2-[4-(O-carboxymethylhydroxylimine)cyclohexyl]-2-(3,3,3-trifluoropropylsulfonyl)acetonitrile] | – | – | ≤ 3 |

| SMILES | number of the parasitic pests (brown rice planthoppers on the rice plants) (brown rice planthopper [1]) | number of the parasitic pests (brown rice planthoppers on the rice plants) (brown rice planthopper [2]) | number of the parasitic pests (cotton aphids on cucumber) (cotton aphids) |
| --- | --- | --- | --- |
| C#CC1(F)CCC(CS(=O)(=O)CCC(F)(F)F)CC1 (stereo not drawn) [present compound (7)] | ≤ 3 | ≤ 3 | ≤ 3 |
| C#CC1CCC=CC1C(C#N)S(=O)(=O)CCC(F)(F)F (stereo not drawn) [present compound (32), 2-(4-ethynyl-cyclohexen-3-yl)-2-(3,3,3-trifluoropropylsulfonyl)acetonitrile] | ≤ 3 | ≤ 3 | ≤ 3 |
| C#CC1=CCC(CS(=O)(=O)CCC(F)(F)F)CC1 (stereo not drawn) | ≤ 3 | ≤ 3 | ≤ 3 |
| N#CC(C1CCC(=NOCc2ccccc2)CC1)S(=O)(=O)CCC(F)(F)F (stereo not drawn) [present compound (38), 2-[4-(O-benzylhydroxylimino)cyclohexyl]-2-(3,3,3-trifluoropropylsulfonyl)acetonitrile] | ≤ 3 | ≤ 3 | – |
| N#CC(C1CCC2(CC1)OCCO2)S(=O)(=O)CCC(F)(F)F (stereo not drawn) [present compound (27), 2-(1,4-dioxaspiro[4.5]dec-8-yl)-2-(3,3,3-trifluoropropylsulfonyl)acetonitrile] | ≤ 3 | ≤ 3 | – |
| NC(=O)C(F)(C1CCC(F)(F)CC1)S(=O)(=O)CCC(F)(F)F (stereo not drawn) [present compound (13), 2-(4,4-difluorocyclohexyl)-2-fluoro-2-(3,3,3-trifluoropropylsulfonyl)acetamide] | ≤ 3 | ≤ 3 | ≤ 3 |
| C#CC1CCC(CS(=O)(=O)CCC(F)(F)F)CC1 (stereo not drawn) [present compound (18c), 1-ethynyl-4-(3,3,3-trifluoropropylsulfonylmethyl)cyclohexane] | ≤ 3 | – | – |
| N#CC1CCC(CS(=O)(=O)CCC(F)(F)F)CC1 (stereo not drawn) [present compound (20), 1-cyano-4-(3,3,3-trifluoropropylsulfonylmethyl)cyclohexane] | ≤ 3 | ≤ 3 | ≤ 3 |
| C#CC1CCC(CS(=O)(=O)CCC(F)(F)F)CC1 (stereo not drawn) [present compound (18t), 1-ethynyl-4-(3,3,3-trifluoropropylsulfonylmethyl)cyclohexane] | – | ≤ 3 | ≤ 3 |
| N#CC(C1CCC(F)(F)CC1)S(=O)(=O)CCC(F)(F)F (stereo not drawn) [present compound (29), 2-(4,4-difluorocyclohexyl)-2-(3,3,3-trifluoropropylsulfonyl)acetonitrile] | ≤ 3 | ≤ 3 | ≤ 3 |
| COC(=O)CCC#CC1CCC(CS(=O)(=O)CCC(F)(F)F)CC1 (stereo not drawn) [present compound (19), 5-[4-(3,3,3-trifluoropropylsulfonylmethyl)cycohexanyl]-4-pentynic acid methyl ester] | ≤ 3 | ≤ 3 | ≤ 3 |
| C=C1CCC(CS(=O)(=O)CCC(F)(F)F)CC1 [present compound (56), 1-methylene-4-(3,3,3-trifluoropropylsulfonylmethyl)-cyclohexanone] | ≤ 3 | ≤ 3 | – |
| CC(C)(C)ON=C1CCC(C(C#N)S(=O)(=O)CCC(F)(F)F)CC1 (stereo not drawn) [present compound (36), 2-[4-(t-butoxyimino)cyclohexyl]-2-(3,3,3-trifluoropropylsulfonyl)acetonitrile] | ≤ 3 | – | – |
| N#CC(C1CCC(=NO)CC1)S(=O)(=O)CCC(F)(F)F (stereo not drawn) [present compound (34), 2-[4-(hydroxyimino)cyclohexyl]-2-(3,3,3-trifluoropropylsulfonyl)acetonitrile] | ≤ 3 | ≤ 3 | ≤ 3 |
| CON=C1CCC(CS(=O)(=O)CCC(F)(F)F)CC1 (stereo not drawn) [present compound (21), 4-(3,3,3-trifluoropropylsulfonylmethyl)-cyclohexanone O-methyloxime] | ≤ 3 | ≤ 3 | – |
